Results: paper PMC8024263
These are yes or no findings as the source states them, for the method shown. In cells and extracts the contact can be indirect.

Chains of the proteins cited; added tags and fusions are not shown.
UniProt P60766: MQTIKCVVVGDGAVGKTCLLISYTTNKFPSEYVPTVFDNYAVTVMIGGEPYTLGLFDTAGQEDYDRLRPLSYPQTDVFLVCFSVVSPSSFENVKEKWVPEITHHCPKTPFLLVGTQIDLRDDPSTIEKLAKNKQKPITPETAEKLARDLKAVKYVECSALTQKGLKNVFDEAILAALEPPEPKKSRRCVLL

Target: T1, Cellular repressor of E1A-stimulated genes (CREG) (mouse (endogenous in 3T3 fibroblasts)) (UniProt O88668)
T1 sequence: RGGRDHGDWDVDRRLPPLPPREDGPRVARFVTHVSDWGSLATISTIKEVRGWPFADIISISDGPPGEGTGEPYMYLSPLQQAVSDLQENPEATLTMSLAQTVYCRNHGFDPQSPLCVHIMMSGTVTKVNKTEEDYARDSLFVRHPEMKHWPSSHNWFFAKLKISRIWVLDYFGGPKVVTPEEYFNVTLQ
Assay: co-IP; protein of mouse 3T3 fibroblasts (1000 ug) incubated with CREG, CDC42 or IgG antibody and protein A/G beads overnight at 4 °C; beads washed 3 times; CREG and CDC42 detected by western blotting; both directions (Fig. 8H, I)

cell division control protein 42 (CDC42) (from UniProt P60766 1-191)
binding: no binding
